In the supplement of paper PMC6411743:
± gives the standard deviation of the averaged measurements. Some of the results follow.

The chains behind the UniProt entries cited, without tags or fusion partners. Where a name states a change or a piece, a line headed by the entry shows the natural chain unless it says otherwise.
UniProt Q92556, whole entry: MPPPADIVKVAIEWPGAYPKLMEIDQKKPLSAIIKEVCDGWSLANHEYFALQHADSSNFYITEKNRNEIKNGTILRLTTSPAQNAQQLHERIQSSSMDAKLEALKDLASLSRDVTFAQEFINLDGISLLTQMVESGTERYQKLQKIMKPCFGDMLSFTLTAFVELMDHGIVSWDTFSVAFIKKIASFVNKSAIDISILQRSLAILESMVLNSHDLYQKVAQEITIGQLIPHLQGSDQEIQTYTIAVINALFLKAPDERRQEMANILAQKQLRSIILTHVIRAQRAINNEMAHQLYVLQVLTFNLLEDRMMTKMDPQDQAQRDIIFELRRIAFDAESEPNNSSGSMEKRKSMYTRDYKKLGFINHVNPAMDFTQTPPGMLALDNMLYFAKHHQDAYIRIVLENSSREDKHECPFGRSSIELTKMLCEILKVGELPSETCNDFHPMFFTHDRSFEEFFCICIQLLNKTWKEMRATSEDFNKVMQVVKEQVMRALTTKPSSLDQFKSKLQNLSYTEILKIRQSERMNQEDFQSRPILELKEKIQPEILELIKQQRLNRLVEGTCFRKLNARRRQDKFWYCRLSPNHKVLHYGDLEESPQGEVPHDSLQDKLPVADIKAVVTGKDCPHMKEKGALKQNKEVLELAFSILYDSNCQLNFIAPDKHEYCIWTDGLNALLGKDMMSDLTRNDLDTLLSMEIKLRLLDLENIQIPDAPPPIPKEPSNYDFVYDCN
UniProt Q96E11: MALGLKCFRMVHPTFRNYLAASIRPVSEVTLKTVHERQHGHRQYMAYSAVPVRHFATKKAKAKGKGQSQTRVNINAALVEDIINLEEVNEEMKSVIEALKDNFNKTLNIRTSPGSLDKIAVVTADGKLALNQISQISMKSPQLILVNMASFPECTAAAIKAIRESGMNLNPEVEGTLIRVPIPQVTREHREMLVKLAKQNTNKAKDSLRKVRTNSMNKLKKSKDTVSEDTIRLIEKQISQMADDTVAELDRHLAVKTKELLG
UniProt Q96FK6: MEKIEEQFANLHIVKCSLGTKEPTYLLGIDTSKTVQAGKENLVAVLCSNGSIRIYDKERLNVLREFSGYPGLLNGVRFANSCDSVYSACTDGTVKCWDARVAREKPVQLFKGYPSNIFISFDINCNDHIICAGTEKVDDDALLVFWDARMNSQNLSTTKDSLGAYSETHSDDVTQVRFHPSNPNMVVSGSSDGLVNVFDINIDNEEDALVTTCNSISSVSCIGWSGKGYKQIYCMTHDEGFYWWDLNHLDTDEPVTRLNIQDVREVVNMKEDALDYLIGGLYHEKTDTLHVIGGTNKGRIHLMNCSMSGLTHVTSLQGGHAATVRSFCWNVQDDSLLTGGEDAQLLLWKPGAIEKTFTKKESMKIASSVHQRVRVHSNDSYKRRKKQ
UniProt Q8WWI5: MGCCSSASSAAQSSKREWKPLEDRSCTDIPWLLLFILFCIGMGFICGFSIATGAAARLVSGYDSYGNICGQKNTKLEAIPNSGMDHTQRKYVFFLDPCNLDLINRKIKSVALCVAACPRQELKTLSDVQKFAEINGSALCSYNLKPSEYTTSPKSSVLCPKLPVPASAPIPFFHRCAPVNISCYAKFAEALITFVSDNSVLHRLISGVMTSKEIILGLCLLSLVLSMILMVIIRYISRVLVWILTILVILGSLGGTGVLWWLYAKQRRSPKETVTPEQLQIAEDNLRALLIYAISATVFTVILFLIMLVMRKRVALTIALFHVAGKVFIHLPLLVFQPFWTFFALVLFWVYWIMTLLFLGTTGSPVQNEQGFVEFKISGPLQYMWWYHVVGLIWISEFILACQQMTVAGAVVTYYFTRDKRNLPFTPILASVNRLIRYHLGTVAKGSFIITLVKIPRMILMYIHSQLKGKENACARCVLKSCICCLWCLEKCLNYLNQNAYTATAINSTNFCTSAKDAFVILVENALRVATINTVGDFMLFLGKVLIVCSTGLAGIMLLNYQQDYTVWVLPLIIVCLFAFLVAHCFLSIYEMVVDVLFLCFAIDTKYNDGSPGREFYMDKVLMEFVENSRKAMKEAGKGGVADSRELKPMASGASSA
UniProt Q96EY8: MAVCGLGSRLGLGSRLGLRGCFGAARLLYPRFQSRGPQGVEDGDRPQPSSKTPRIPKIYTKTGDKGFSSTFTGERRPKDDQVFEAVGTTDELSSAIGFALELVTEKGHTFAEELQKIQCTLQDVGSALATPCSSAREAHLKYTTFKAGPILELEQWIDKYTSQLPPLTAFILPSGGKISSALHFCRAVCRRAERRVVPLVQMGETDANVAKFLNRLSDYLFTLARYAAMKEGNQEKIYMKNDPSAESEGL
UniProt Q8WYP5: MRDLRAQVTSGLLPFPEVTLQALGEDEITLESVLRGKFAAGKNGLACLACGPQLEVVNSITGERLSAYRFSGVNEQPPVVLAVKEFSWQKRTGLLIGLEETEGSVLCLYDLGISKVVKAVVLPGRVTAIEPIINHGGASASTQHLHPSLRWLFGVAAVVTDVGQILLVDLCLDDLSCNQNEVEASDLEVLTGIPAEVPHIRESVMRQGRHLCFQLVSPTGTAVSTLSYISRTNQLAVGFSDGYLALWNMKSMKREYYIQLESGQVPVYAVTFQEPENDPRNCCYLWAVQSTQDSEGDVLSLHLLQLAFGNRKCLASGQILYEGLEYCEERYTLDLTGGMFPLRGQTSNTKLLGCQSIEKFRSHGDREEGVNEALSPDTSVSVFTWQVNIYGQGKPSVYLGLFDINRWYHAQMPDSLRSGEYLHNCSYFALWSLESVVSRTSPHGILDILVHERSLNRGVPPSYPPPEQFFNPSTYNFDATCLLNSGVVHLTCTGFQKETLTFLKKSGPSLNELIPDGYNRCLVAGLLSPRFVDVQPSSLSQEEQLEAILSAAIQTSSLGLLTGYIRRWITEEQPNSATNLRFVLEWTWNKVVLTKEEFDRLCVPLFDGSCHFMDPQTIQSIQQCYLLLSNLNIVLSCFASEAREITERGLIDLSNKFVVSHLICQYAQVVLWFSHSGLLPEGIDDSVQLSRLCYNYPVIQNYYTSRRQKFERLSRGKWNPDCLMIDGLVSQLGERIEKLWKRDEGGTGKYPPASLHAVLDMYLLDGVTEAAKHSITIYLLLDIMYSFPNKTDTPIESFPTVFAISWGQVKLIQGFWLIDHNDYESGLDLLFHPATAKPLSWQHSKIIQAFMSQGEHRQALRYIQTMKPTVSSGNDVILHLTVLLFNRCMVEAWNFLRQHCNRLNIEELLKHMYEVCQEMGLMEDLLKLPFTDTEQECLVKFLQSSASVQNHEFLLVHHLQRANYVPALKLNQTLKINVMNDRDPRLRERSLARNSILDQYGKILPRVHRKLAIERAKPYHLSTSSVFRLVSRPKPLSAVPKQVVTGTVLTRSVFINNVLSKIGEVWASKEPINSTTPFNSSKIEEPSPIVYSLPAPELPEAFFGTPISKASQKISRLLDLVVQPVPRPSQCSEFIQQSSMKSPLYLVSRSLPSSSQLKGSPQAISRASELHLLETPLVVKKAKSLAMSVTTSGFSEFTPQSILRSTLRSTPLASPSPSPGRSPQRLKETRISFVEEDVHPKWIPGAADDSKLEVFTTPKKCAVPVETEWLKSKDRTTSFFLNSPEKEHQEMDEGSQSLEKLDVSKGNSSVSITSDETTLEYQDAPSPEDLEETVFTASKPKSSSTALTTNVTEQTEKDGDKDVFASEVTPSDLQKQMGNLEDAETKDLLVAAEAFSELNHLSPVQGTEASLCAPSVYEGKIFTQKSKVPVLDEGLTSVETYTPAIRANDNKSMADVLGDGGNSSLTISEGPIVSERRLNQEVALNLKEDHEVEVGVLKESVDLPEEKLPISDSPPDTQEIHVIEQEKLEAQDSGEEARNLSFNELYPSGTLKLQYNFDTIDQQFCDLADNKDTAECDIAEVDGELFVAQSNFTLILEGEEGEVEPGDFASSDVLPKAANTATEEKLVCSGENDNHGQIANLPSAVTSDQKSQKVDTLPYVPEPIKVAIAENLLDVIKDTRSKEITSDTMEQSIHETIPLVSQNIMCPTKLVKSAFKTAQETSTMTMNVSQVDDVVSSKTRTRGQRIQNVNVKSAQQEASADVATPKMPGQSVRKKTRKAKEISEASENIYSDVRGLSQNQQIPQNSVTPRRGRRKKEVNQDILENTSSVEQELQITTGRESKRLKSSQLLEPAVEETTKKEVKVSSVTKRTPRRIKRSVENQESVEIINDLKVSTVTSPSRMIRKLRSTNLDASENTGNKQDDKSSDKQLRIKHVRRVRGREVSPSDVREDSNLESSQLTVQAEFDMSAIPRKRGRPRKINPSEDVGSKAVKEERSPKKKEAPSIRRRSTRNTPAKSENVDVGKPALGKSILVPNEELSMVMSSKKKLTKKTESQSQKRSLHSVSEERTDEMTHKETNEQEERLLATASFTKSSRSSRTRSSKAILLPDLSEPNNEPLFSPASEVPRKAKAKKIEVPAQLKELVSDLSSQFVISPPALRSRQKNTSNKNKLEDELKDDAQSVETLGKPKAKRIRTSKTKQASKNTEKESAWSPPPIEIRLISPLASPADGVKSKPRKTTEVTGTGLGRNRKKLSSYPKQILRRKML
UniProt Q96JC1: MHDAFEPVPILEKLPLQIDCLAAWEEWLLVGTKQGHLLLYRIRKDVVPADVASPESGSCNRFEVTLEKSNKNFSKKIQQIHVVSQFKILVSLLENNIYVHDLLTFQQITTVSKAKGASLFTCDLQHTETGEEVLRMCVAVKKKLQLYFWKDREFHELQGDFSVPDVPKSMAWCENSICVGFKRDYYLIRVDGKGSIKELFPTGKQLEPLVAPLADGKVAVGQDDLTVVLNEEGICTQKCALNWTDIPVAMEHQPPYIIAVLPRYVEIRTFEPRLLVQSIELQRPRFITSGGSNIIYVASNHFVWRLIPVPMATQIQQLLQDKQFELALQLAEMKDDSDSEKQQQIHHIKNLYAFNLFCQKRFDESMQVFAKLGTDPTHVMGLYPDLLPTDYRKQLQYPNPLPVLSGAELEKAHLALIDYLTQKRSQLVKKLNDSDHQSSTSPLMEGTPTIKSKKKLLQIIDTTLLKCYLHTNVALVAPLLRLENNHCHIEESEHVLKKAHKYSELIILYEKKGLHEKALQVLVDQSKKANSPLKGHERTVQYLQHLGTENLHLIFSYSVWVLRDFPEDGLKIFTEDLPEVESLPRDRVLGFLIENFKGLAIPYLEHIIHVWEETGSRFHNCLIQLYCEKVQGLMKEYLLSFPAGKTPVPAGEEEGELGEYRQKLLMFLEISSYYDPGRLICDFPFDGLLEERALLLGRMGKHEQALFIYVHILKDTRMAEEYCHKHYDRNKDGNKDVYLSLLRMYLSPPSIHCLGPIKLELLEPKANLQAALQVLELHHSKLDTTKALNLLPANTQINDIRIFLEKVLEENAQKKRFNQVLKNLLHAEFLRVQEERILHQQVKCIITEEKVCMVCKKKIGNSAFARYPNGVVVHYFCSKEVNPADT
UniProt Q93034, whole entry: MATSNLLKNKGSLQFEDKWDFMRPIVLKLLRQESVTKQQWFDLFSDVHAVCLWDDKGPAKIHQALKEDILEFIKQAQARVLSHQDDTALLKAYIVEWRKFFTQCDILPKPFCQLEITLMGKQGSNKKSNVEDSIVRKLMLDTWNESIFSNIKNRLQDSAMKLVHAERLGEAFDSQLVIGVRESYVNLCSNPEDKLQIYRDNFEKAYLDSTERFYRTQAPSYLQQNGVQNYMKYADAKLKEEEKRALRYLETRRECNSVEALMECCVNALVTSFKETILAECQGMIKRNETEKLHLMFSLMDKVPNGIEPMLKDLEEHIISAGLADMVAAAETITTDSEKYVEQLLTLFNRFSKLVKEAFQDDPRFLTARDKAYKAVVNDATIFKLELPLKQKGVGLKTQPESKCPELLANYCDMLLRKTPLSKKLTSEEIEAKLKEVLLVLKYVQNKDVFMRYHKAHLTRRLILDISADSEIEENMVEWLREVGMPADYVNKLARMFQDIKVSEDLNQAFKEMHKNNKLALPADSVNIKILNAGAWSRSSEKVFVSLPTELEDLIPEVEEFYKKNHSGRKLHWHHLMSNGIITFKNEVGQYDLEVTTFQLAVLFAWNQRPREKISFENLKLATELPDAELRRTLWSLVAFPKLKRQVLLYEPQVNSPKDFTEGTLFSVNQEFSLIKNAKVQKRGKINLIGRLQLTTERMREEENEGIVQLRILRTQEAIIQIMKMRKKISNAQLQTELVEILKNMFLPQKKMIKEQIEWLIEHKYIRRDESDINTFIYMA
UniProt Q96DA6: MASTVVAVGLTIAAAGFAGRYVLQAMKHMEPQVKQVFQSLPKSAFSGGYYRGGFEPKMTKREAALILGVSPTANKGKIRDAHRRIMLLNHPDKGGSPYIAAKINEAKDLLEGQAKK

Compound: Nc1nc2c(ncn2[C@@H]2O[C@H](COP(=O)(O)OP(=O)(O)OP(=O)(O)O)[C@@H](O)[C@H]2O)c(=O)[nH]1 [guanosine triphosphate]
Experiment: NP40-soluble protein abundance relative to vehicle (solubility fold change) (ratio); higher = more soluble protein in presence of GTP
In short: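 Across three independent experiments, values are fold changes against the detergent-processed vehicle for each replicate, based on vsn-normalised intensities. The samples were Jurkat crude lysate treated with eight concentrations (0.1 to 10 mM) for 10 min at room temperature and then 3 min at 37 °C. Lysate was solubilised with 0.8% NP40 and benzonase, ultracentrifuged, and the supernatant analysed by TMT-labelled LC-MS/MS.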

| Target | NP40-soluble protein abundance (concentration: 0.1mM) | NP40-soluble protein abundance (concentration: 0.5mM) | NP40-soluble protein abundance (concentration: 1mM) | NP40-soluble protein abundance (concentration: 2mM) | NP40-soluble protein abundance (concentration: 4mM) | NP40-soluble protein abundance (concentration: 6mM) | NP40-soluble protein abundance (concentration: 8mM) | NP40-soluble protein abundance (concentration: 10mM) |
| --- | --- | --- | --- | --- | --- | --- | --- | --- |
| ELMO1 (UniProt Q92556) | 1.03 ± 0.015 | 1.04 ± 0.031 | 0.981 ± 0.016 | 0.994 ± 0.023 | 0.981 ± 0.026 | 0.979 ± 0.021 | 0.971 ± 0.022 | 0.948 ± 0.025 |
| UniProt Q96E11 and related entries | 0.902 ± 0.075 | 0.8646 ± 0.0015 | 0.995 ± 0.11 | 1.01 ± 0.042 | 0.913 ± 0.066 | 0.961 ± 0.045 | 0.891 ± 0.12 | 1.04 ± 0.18 |
| WDR89 (UniProt Q96FK6) | 1.06 ± 0.077 | 1.09 ± 0.065 | 1.12 ± 0.048 | 1.15 ± 0.079 | 1.18 ± 0.043 | 1.31 ± 0.022 | 1.28 ± 0.069 | 1.25 ± 0.1 |
| UniProt Q96ES7 | 1.21 ± 0.22 | 1.12 ± 0.13 | 1.25 ± 0.19 | 1.14 ± 0.12 | 1.26 ± 0.11 | 1.17 ± 0.11 | 1.38 ± 0.32 | 1.12 ± 0.096 |
| SLC44A1 (UniProt Q8WWI5) | 0.943 ± 0.066 | 0.931 ± 0.078 | 0.926 ± 0.061 | 0.894 ± 0.093 | 0.934 ± 0.07 | 0.879 ± 0.1 | 0.899 ± 0.1 | 0.938 ± 0.08 |
| MMAB (UniProt Q96EY8) | 0.943 ± 0.074 | 0.892 ± 0.071 | 0.943 ± 0.046 | 0.904 ± 0.088 | 0.931 ± 0.054 | 0.949 ± 0.073 | 0.924 ± 0.077 | 0.923 ± 0.081 |
| UniProt Q8WYP5 and related entries | 1.07 ± 0.029 | 1.08 ± 0.026 | 1.09 ± 0.04 | 1.16 ± 0.054 | 1.3 ± 0.046 | 1.36 ± 0.085 | 1.49 ± 0.09 | 1.55 ± 0.11 |
| UniProt Q96JC1 and related entries | 1.1 ± 0.05 | 1.07 ± 0.11 | 1.17 ± 0.1 | 1.17 ± 0.13 | 1.15 ± 0.13 | 1.17 ± 0.15 | 1.22 ± 0.068 | 1.09 ± 0.1 |
| RTF1 (UniProt Q92541) | 0.98 ± 0.054 | 0.975 ± 0.062 | 0.943 ± 0.062 | 0.916 ± 0.085 | 0.915 ± 0.08 | 0.947 ± 0.081 | 0.949 ± 0.057 | 0.93 ± 0.084 |
| CUL5 (UniProt Q93034) | 1.1 ± 0.037 | 1.08 ± 0.07 | 1 ± 0.041 | 1.04 ± 0.081 | 1.02 ± 0.04 | 0.991 ± 0.045 | 0.972 ± 0.028 | 0.937 ± 0.038 |
| UniProt Q96DA6 and related entries | 0.894 ± 0.12 | 0.836 ± 0.074 | 1.03 ± 0.17 | 1.04 ± 0.084 | 1 ± 0.092 | 1.01 ± 0.042 | 0.944 ± 0.13 | 1.09 ± 0.17 |
| UniProt Q96BN8 | 1.028 ± 0.0021 | 0.983 ± 0.054 | 0.914 ± 0.018 | 0.916 ± 0.073 | 0.892 ± 0.045 | 0.855 ± 0.051 | 0.846 ± 0.058 | 0.854 ± 0.057 |
| MRPL53 (UniProt Q96EL3) | 0.935 ± 0.065 | 0.934 ± 0.09 | 1.13 ± 0.22 | 1.2 ± 0.2 | 1.27 ± 0.27 | 1.18 ± 0.23 | 1.14 ± 0.18 | 1.15 ± 0.25 |
